# In the supplement of paper PMC7666118:
# By UniProt entry, the sequences of proteins in these tests, tags left out. Where a name states a change or a piece, a line headed by the entry shows the natural chain unless it says otherwise.
# UniProt Q5VZL5: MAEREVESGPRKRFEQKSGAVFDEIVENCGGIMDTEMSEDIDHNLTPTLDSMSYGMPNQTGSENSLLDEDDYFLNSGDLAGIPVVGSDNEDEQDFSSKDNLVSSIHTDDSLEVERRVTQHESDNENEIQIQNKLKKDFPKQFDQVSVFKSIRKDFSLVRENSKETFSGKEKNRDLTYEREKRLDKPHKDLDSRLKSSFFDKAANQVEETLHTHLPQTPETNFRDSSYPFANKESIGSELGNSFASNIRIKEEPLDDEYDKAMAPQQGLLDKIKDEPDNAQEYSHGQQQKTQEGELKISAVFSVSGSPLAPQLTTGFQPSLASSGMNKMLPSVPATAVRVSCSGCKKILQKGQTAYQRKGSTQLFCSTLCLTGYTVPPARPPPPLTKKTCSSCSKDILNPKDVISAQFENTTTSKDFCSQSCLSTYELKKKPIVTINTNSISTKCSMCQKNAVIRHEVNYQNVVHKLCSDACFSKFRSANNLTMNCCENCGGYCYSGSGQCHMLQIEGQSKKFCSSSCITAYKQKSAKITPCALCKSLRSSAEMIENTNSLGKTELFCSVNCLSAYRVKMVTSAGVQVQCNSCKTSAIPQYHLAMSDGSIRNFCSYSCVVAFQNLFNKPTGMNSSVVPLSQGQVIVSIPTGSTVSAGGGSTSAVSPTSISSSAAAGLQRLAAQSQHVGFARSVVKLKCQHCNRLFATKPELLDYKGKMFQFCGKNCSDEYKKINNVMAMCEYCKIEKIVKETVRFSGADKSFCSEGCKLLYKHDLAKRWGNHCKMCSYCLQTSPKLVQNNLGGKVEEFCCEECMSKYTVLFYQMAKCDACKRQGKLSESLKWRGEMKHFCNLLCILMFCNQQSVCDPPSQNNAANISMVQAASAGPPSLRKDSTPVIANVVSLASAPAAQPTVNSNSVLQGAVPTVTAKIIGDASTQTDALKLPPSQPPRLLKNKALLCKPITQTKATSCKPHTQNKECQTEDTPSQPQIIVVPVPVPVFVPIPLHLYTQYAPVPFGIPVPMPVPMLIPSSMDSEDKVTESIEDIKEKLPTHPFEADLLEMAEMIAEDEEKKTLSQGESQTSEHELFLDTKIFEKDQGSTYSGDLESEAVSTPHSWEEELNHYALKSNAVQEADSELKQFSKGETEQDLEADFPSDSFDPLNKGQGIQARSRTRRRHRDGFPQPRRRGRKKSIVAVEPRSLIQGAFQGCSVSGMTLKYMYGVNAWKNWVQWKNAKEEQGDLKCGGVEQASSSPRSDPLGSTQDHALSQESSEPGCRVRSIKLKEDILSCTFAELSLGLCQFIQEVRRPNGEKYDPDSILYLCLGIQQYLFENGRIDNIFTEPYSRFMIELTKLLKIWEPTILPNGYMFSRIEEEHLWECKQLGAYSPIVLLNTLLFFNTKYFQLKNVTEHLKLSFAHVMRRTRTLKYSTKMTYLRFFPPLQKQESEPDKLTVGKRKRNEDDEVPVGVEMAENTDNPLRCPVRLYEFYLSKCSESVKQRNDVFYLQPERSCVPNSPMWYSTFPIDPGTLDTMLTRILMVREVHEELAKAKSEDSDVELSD
# UniProt O00258: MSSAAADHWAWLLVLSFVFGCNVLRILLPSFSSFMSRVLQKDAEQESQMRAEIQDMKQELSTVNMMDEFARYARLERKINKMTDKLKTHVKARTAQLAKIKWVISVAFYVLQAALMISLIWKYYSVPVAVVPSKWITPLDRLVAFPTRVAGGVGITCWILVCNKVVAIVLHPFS
# UniProt Q8N680: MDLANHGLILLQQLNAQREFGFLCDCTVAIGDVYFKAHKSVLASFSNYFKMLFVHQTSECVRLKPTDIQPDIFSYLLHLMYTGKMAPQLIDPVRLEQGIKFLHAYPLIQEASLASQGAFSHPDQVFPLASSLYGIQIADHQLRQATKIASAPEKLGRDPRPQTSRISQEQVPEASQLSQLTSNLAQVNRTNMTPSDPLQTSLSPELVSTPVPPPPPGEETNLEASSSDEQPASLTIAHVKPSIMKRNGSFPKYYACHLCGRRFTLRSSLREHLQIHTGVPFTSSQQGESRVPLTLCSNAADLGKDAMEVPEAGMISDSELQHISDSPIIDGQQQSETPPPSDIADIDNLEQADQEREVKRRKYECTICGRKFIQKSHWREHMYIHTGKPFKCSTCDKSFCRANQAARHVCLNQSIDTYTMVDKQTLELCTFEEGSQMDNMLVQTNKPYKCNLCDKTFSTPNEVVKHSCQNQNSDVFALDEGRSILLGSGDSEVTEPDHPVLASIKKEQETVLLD
# UniProt Q9NQH7: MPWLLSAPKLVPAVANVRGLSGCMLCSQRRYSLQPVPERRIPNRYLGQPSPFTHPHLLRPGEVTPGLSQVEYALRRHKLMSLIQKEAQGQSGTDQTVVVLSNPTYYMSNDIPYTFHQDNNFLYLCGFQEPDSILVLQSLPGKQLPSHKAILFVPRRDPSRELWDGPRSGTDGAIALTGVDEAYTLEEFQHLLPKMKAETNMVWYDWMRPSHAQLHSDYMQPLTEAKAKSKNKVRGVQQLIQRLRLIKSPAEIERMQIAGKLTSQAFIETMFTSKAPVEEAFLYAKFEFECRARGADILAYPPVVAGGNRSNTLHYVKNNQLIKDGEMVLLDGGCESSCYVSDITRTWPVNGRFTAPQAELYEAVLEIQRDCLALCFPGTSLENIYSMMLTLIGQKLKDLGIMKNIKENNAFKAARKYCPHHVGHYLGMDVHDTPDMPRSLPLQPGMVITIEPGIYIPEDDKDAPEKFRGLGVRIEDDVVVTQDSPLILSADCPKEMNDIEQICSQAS
# UniProt Q6UXN9, whole entry: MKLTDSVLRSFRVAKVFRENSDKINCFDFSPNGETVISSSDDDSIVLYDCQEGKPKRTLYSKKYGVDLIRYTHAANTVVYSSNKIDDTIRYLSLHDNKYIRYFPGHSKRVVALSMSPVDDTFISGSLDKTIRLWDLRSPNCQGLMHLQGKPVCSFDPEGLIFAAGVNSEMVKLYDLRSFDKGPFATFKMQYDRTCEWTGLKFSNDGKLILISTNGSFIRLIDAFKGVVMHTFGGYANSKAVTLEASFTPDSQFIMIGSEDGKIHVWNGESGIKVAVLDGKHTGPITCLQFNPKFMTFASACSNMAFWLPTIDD
# UniProt Q6FIF0: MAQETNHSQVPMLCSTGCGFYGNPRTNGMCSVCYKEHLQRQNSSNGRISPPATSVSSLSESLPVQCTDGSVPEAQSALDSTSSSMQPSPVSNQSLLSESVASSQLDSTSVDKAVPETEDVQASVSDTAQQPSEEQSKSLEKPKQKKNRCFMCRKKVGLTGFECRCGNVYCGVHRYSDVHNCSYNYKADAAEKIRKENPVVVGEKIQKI
# UniProt Q16670: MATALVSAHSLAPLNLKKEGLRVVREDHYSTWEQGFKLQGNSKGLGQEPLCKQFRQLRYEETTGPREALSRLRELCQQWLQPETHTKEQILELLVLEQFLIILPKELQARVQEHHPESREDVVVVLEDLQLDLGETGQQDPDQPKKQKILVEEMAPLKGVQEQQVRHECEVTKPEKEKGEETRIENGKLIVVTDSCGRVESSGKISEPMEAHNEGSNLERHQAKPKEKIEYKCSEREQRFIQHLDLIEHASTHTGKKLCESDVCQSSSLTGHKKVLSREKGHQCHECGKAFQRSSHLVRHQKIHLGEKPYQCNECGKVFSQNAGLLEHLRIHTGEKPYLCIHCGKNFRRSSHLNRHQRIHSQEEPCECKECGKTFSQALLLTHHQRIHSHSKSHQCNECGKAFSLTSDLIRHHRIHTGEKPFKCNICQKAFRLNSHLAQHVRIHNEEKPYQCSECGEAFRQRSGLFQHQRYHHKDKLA
# UniProt Q6NZY4: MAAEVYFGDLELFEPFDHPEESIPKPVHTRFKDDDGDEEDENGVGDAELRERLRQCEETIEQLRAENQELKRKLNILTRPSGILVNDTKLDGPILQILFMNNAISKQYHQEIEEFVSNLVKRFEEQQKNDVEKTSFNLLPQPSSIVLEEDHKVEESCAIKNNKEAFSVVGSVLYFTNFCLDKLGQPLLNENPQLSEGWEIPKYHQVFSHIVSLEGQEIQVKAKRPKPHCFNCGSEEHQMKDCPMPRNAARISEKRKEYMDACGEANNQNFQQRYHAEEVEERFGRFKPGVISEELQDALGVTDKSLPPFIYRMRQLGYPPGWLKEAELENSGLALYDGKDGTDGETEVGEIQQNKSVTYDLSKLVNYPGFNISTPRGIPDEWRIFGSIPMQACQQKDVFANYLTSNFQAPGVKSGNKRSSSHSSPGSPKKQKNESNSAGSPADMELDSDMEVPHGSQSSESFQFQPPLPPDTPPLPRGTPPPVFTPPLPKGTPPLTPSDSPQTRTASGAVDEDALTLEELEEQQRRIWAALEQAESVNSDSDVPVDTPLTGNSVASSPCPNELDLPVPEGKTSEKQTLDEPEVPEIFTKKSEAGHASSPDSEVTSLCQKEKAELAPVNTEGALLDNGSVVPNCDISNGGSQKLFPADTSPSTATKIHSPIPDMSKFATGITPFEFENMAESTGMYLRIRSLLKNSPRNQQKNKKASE
# UniProt Q969M3: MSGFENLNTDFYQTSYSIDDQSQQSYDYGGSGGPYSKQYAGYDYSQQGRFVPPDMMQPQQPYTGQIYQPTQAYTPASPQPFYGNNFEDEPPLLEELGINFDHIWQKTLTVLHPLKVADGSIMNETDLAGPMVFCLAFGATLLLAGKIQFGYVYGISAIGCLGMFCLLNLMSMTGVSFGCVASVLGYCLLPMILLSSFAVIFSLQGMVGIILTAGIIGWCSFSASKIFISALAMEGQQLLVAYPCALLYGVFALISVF
# UniProt Q9P2L0: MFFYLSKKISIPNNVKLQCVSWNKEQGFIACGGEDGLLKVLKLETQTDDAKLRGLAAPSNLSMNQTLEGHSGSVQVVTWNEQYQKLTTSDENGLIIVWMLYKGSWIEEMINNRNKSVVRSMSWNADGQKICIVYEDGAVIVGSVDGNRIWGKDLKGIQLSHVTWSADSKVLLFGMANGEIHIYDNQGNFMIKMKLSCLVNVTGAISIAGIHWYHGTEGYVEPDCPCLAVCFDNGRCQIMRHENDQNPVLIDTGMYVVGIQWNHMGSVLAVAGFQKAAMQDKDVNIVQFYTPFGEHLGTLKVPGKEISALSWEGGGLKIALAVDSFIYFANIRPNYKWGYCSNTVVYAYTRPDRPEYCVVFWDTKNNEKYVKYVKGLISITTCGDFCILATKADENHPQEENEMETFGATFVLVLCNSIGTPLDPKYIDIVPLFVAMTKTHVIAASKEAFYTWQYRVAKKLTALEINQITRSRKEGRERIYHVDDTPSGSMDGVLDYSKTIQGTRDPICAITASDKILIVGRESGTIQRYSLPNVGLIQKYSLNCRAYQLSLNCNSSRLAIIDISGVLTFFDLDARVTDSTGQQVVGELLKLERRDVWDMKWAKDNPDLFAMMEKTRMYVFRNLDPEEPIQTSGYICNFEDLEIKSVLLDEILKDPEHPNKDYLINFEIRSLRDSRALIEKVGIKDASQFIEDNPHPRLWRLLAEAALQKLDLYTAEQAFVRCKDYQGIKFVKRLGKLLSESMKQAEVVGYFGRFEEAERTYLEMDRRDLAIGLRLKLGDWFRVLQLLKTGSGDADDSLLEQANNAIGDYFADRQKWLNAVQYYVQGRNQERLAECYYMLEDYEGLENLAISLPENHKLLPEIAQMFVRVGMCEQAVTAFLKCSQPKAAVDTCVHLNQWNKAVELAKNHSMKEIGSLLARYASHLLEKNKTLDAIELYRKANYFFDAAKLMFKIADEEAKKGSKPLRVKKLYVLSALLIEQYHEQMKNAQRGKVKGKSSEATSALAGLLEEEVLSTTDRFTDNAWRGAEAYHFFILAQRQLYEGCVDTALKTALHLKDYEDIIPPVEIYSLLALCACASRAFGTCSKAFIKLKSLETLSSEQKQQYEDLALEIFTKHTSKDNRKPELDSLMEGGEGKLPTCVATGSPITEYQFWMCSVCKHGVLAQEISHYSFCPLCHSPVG
# UniProt Q8NAF0: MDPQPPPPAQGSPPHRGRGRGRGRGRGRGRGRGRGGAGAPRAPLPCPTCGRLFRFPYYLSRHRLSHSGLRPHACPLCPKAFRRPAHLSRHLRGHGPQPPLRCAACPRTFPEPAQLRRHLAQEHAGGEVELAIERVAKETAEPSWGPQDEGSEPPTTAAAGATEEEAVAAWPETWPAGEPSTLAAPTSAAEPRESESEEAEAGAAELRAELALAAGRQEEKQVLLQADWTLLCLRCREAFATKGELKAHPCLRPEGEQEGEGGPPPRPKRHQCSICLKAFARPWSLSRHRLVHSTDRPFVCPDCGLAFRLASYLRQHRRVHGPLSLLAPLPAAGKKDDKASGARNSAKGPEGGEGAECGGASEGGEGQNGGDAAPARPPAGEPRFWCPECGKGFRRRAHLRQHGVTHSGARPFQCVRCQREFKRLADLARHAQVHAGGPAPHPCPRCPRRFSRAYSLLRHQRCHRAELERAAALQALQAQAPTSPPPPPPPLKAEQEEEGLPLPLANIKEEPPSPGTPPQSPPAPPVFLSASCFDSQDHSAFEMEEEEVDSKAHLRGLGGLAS
# Some of the results follow.
# Compound: COc1ccc(Cn2ccc3cc(C)c(C(=O)NO)cc32)cc1
# Test: dose-dependent thermal stabilisation call (2D-TPP, DLPTP, 10% FDR) (binary (1 = stabilised)); higher = stabilised by the compound
# Settings: system: HL-60 intact cells; concentration range 0.04-10 µM
# Experimental: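 2D thermal proteome profiling in intact HL-60 cells treated with BRD-3811 (0, 0.04, 0.29, 2, 10 uM) for 90 min at 37 C, then heated 3 min at one of 12 temperatures (42-63.9 C). Soluble protein was quantified by TMT10 MS. The value is the DLPTP call of the paper: dose-dependent thermal stabilisation over all temperatures at 10% FDR (F-test of a dose-response against a flat model); one experiment, one call per tested protein.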
row,Target,dose-dependent thermal stabilisation call
1,XRN2 (UniProt Q9H0D6),inactive: 0
2,ZC3H7A (UniProt Q8IWR0),inactive: 0
3,WDR61 (UniProt Q9GZS3),inactive: 0
4,WDR62 (UniProt O43379),inactive: 0
5,ZNF740 (UniProt Q8NDX6),inactive: 0
6,ZDHHC20 (UniProt Q5W0Z9),inactive: 0
7,ZC3H4 (UniProt Q9UPT8),inactive: 0
8,ZMYM4 (UniProt Q5VZL5),inactive: 0
9,WRB (UniProt O00258),inactive: 0
10,WDR3 (UniProt Q9UNX4),inactive: 0
11,ZBTB2 (UniProt Q8N680),inactive: 0
12,ZNF326 (UniProt Q5BKZ1),inactive: 0
13,ZW10 (UniProt O43264),inactive: 0
14,WDR5 (UniProt P61964),inactive: 0
15,ZNF622 (UniProt Q969S3),inactive: 0
16,YME1L1 (UniProt Q96TA2),inactive: 0
17,ZRANB2 (UniProt O95218),inactive: 0
18,WDR54 (UniProt Q9H977),inactive: 0

row,Target,dose-dependent thermal stabilisation call
1,XPO7 (UniProt Q9UIA9),inactive: 0
2,YDJC (UniProt A8MPS7),inactive: 0
3,XPNPEP3 (UniProt Q9NQH7),inactive: 0
4,WDR82 (UniProt Q6UXN9),inactive: 0
5,ZNF592 (UniProt Q92610),inactive: 0
6,ZFAND6 (UniProt Q6FIF0),inactive: 0
7,YTHDC2 (UniProt Q9H6S0),inactive: 0
8,ZBTB33 (UniProt Q86T24),inactive: 0
9,ZFC3H1 (UniProt O60293),inactive: 0
10,ZNF646 (UniProt O15015),inactive: 0
11,ZNF187 (UniProt Q16670),inactive: 0
12,ZCCHC8 (UniProt Q6NZY4),inactive: 0
13,YIPF5 (UniProt Q969M3),inactive: 0
14,ZNHIT3 (UniProt Q15649),inactive: 0
15,WIPI2 (UniProt Q9Y4P8),inactive: 0
16,WDR35 (UniProt Q9P2L0),inactive: 0
17,ZWINT (UniProt O95229),inactive: 0
18,ZNF579 (UniProt Q8NAF0),inactive: 0

# As entered above.
# dose-dependent thermal stabilisation call with ZWINT (UniProt O95229) is entered as inactive: 0
# dose-dependent thermal stabilisation call with ZFAND6 (UniProt Q6FIF0) is entered as inactive: 0
